Reference: PubChem BioAssay (Tox21)
Values joined by “and” are separate entries in the source; they are usually repeats but may differ in a detail not shown here. Equal entries are not always repeated. Listed are the inconclusive results; actives and inactives stand elsewhere. Unless noted, calls follow the shape of the dose curve; as a rule, active = well fitted curve in the direction sought with a large enough effect in the repeat runs; inconclusive = weak or mixed curves; inactive = no such curve, though single readings can be large; an effect the other way counts as inactive or inconclusive.

By UniProt entry, the sequences of proteins in these tests, tags left out.
UniProt Q14994, whole entry: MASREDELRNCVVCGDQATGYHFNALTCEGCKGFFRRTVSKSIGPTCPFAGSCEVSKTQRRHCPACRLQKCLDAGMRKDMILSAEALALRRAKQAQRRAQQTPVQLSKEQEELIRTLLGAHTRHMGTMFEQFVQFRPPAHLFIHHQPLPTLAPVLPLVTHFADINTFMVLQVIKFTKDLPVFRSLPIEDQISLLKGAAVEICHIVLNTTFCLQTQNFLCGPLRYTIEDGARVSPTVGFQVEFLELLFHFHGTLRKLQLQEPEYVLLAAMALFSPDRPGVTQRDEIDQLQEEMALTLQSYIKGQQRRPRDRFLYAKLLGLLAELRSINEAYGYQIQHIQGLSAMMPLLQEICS
UniProt P06401, whole entry: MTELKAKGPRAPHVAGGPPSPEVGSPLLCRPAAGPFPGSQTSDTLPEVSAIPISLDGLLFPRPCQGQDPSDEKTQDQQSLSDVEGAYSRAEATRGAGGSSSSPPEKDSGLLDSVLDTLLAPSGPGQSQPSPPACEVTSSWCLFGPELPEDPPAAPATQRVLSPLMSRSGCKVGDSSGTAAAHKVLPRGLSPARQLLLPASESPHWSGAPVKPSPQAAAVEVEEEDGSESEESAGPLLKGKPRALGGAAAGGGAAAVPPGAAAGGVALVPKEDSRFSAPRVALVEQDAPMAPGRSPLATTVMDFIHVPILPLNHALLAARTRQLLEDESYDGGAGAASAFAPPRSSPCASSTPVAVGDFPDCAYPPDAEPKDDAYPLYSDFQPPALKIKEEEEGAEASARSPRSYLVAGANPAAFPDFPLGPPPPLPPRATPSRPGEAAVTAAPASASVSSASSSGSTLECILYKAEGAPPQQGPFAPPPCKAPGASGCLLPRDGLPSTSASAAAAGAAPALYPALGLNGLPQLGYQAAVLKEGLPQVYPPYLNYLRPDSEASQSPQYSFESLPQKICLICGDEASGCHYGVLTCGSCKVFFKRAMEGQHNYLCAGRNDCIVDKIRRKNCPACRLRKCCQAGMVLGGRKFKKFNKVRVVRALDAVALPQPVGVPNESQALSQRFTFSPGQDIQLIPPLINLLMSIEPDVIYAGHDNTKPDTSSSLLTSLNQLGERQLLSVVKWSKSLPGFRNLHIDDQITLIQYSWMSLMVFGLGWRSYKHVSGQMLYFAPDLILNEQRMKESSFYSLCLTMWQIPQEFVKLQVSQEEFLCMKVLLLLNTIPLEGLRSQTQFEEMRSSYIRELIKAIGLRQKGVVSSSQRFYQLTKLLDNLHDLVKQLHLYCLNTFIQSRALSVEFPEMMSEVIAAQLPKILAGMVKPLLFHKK
UniProt P10635, whole entry: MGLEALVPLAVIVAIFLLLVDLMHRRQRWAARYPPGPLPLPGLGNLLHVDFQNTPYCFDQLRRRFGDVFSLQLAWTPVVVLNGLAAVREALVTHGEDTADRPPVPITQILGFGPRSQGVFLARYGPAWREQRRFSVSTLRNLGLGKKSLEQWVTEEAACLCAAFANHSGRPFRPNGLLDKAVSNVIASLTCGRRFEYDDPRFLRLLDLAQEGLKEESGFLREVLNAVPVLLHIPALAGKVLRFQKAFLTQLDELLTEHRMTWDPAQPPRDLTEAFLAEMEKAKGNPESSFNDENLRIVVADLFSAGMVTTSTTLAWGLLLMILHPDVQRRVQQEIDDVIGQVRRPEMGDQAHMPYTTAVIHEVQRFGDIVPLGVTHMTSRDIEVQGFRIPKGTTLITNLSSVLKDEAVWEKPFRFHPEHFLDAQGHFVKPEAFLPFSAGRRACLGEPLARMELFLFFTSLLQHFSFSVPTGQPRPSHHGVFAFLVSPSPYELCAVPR
UniProt P05177, whole entry: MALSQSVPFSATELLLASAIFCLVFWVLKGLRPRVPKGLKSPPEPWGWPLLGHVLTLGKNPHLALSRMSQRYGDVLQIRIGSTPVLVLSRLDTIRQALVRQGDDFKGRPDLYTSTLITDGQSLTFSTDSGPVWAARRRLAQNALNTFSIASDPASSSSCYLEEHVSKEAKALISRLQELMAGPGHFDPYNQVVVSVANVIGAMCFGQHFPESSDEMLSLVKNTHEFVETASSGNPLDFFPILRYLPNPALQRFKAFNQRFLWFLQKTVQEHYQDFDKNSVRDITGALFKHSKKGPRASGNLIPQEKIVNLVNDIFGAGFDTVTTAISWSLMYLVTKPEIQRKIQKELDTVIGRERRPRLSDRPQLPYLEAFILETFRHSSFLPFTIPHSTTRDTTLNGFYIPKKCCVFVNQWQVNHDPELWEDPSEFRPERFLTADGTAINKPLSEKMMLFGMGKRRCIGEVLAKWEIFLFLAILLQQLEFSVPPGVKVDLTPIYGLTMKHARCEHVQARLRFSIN

Assays:
[1] = qHTS assay to identify small molecule antagonists of the estrogen related receptor (ERR) signaling pathway from Tox21 library - cell viability counter screen (AID 1224834); conditions: ERR reporter cells viability, CellTiter-Fluor, 17.5 h; also: nearly all actives have a fitted effect of over 30% in size
Method in brief: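 In this quantitative HTS format, ERR cells receive compounds in DMSO and are incubated for 17.5 h at 37 C. Live-cell protease activity is then detected with CellTiter-Fluor.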

[2] = target: Nuclear receptor subfamily 1 group I member 3 (Homo sapiens) (UniProt Q14994); experiment: qHTS assay to identify small molecule antagonists of the constitutive androstane receptor (CAR) signaling pathway (AID 1224838); conditions: HepG2-CYP2B6-hCAR luciferase, CITCO-stimulated, 24 h;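 also: HepG2 cells stably expressing hCAR with CYP2B6 luciferase reporter stimulated by CITCO; nearly all actives have a fitted effect of over 40% in size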
[3] = qHTS assay to identify small molecule antagonists of the estrogen related receptor signaling pathway with the pleiotropic PPARgamma coactivator (PGC) from Tox21 10K library (AID 1224841; call rule not given here; also: actives are mostly falling curves and most rising ones were filed inactive; nearly all actives have a fitted effect of over 50% in size); conditions: PGC/ERR reporter cell line, ONE-Glo luciferase, 18 h
[4] = qHTS assay to identify small molecule agonists of the hypoxia (HIF-1) signaling pathway - cell viability counter screen (AID 1224844; calls by dose curve; also: nearly all actives have a fitted effect of over 50% in size); conditions: HRE-bla ME-180 viability, CellTiter-Glo luminescence, 17 h
Method in brief: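 Same wells as the HIF-1 reporter screen; ME-180 cells carrying HRE-bla, 17 hr treatment at 37C; CellTiter-Glo luminescence read after 30 min at room temperature.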

[5] = qHTS assay to identify small molecule agonists of the hypoxia (HIF-1) signaling pathway (AID 1224846; active = well fitted activation curve with a large enough effect in the signal ratio in the repeat runs, not every such curve was filed as active; inconclusive = weak or mixed curves; the % refers to the signal ratio); conditions: HRE-bla ME-180 cells, beta-lactamase ratio, 17 h
Method in brief: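 In ME-180 cells bearing an HRE-bla construct, 17 h treatment with DMSO-dissolved compounds at 37C was followed by CCF4-AM loading to quantify reporter induction.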

[6] = qHTS assay to identify small molecule agonists of H2AX - cell viability counter screen (AID 1224847; calls by dose curve; also: nearly all actives have a fitted effect of over 30% in size); conditions: CHO-K1 viability, CellTiter-Glo luminescence, 3 h
Method in brief: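 CHO-K1 cells plated overnight at 37C, then exposed 3 h at 37C to compounds at 15 concentrations (0.76% DMSO final). Viability by CellTiter-Glo luminescence after 30 min at room temperature.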

[7] = qHTS assay to identify small molecule antagonists of the estrogen related receptor (ERR) signaling pathway from Tox21 library (AID 1224848); conditions: ERR reporter cell line, luciferase antagonist mode, 18 h; also: nearly all actives have a fitted effect of over 50% in size
Method in brief: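 First, 2,000 ERR cells per well were plated and held 6 h at 37 C/5% CO2. Next, compounds in DMSO were pinned in and left 18 h at 37 C. Finally, ONE-Glo was added and luminescence read after 30 min at room temperature.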

[8] = qHTS RealTime-Glo MT Cell Viability Assay in HepG2 cells - 24 hour (AID 1224867); conditions: RealTime-Glo luminescence; also: nearly all actives have a fitted effect of over 50% in size
Method in brief: (§1)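 HepG2 cells were seeded at 600 cells/well together with NanoLuc luciferase and a cell-permeant prosubstrate, preincubated 5 h at 37 C/5% CO2, then pin-dosed with compounds in DMSO. Nonlytic luminescence from viable cells was read at each time point.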

[9] = qHTS RealTime-Glo MT Cell Viability Assay in HepG2 cells - 40 hour (AID 1224870); conditions: RealTime-Glo luminescence; also: nearly all actives have a fitted effect of over 50% in size
Method in brief: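 HepG2 cells mixed with RealTime-Glo MT reagents (NanoLuc plus cell-permeant prosubstrate) were seeded at 600 cells/well, incubated 5 h at 37 C/5% CO2, then pinned with compounds in DMSO; nonlytic luminescence tracked viability during 40 h treatment.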

[10] = A CellTox Green Cytotoxicity Assay to monitor cytotoxicity in HEK293 cells - 40 hour (AID 1224871); conditions: CellTox Green fluorescence; also: nearly all actives have a fitted effect of over 45% in size
Method in brief: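 Homogeneous no-lysis format: HEK293 cell suspension mixed with CellTox Green reagent, seeded, incubated 5 h at 37 C/5% CO2, then dosed by pintool with compound in DMSO.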

[11] = qHTS RealTime-Glo MT Cell Viability Assay in HEK293 cells - 16 hour (AID 1224872); conditions: RealTime-Glo luminescence; also: nearly all actives have a fitted effect of over 50% in size
Method in brief: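 HEK293 cells were seeded at 600 cells/well together with NanoLuc luciferase and cell-permeant prosubstrate, preincubated 5 h at 37 C/5% CO2, then given compound in DMSO by pintool. Luminescence from viable-cell prosubstrate reduction was read repeatedly over 40 h.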

[12] = A CellTox Green Cytotoxicity Assay to monitor cytotoxicity in HepG2 cells - 16 hour (AID 1224876); conditions: CellTox Green fluorescence; also: nearly all actives have a fitted effect of over 45% in size
Method in brief: (§2)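 Fluorescent DNA-binding dye, 600 HepG2 cells/well, 5 h preincubation then compound in DMSO; same plates read at 0–40 h, 37 C.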

[13] = qHTS RealTime-Glo MT Cell Viability Assay in HepG2 cells - 32 hour (AID 1224877); conditions: RealTime-Glo luminescence; also: nearly all actives have a fitted effect of over 55% in size
Method in brief: as §1

[14] = A CellTox Green Cytotoxicity Assay to monitor cytotoxicity in HepG2 cells - 24 hour (AID 1224878); conditions: CellTox Green fluorescence; also: nearly all actives have a fitted effect of over 45% in size
Method in brief: as §2

[15] = A CellTox Green Cytotoxicity Assay to monitor cytotoxicity in HepG2 cells - 40 hour (AID 1224879); conditions: CellTox Green fluorescence; also: nearly all actives have a fitted effect of over 40% in size
Method in brief: as §2

[16] = qHTS assay to identify small molecule antagonists of the androgen receptor (AR) signaling pathway using the MDA cell line in the presence of 0.5 nM R1881 - cell viability counter screen (AID 1259242); conditions: MDA-kb2 viability, CellTiter-Fluor protease fluorescence, 16 h; also: nearly all actives have a fitted effect of over 45% in size
Method in brief: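 Human breast carcinoma MDA-kb2 cells, cultured without CO2, receive compounds alongside 0.5 nM (final) R1881 agonist. After 16 hr at 37C, viability is taken as live-cell protease signal.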

[17] = qHTS assay to identify small molecule agonists of the sonic hedgehog signaling (Shh) pathway - cell viability counter screen (AID 1259366); conditions: NIH/3T3 Gli1-Luc viability, CellTiter-Fluor, 24 h; also: nearly all actives have a fitted effect of over 50% in size
Method in brief: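 NIH/3T3-derived Gli1-Luc reporter cells, 2,000 per well, received compound after 4 h and were treated about 23 h at 37C. Viability measured in the same wells by CellTiter-Fluor fluorescence after 1 h.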

[18] = qHTS assay to identify small molecule antagonists of the sonic hedgehog signaling (Shh) pathway - cell viability counter screen (AID 1259367); conditions: NIH/3T3 Gli1-Luc viability, CellTiter-Fluor, 24 h; also: nearly all actives have a fitted effect of over 55% in size
Method in brief: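 Cytotoxicity was assessed in parallel with Shh reporter activity by measuring live-cell protease fluorescence (CellTiter-Fluor) in NIH/3T3 cells stably carrying Gli1-Luc, treated with compound under conditioned medium stimulation for 23 hr plus 1 hr reagent incubation.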

[19] = qHTS assay to identify small molecule agonists of the estrogen receptor beta (ER-beta) signaling pathway - cell viability counter screen (AID 1259380); conditions: ER-beta-bla HEK293T viability, CellTiter-Glo luminescence, 16 h; also: nearly all actives have a fitted effect of over 30% in size
Method in brief: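 In this qHTS counter screen, HEK293T cells carrying an ER-beta/UAS beta-lactamase reporter, grown in 2% charcoal-stripped FBS, received compound for 16 hr; ATP-based CellTiter-Glo luminescence was then read after 30 min at room temperature.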

[20] = qHTS assay to identify small molecule antagonists of the estrogen receptor beta (ER-beta) signaling pathway - cell viability counter screen (AID 1259382); conditions: ER-beta-UAS-bla HEK293T viability, CellTiter-Glo luminescence, 16 h; also: nearly all actives have a fitted effect of over 55% in size
Method in brief: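 HEK293T ER-beta-UAS-bla, 2% charcoal-stripped FBS; compounds + 1nM E2 16 hr 37C; CellTiter-Glo luminescence, 30 min RT.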

[21] = qHTS assay to identify small molecule agonists of the estrogen receptor alpha (ER-alpha) signaling pathway in the presence of an antagonist - cell viability counter screen (AID 1259386); conditions: VM7Luc4E2 viability, CellTiter-Fluor fluorescence, 22 h;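 also: cells exposed to compounds for 22 h at 37 °C before the viability read; nearly all actives have a fitted effect of over 30% in size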
Method in brief: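 Steps: 5-day stripped-FBS culture; seed and incubate 24hr; add ICI-182,780 (10.0nM final); pin 15-point compound titration; incubate 22hr at 37C; add CellTiter-Fluor at 21hr; read fluorescence.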

[22] = target: Progesterone receptor (Homo sapiens) (UniProt P06401); experiment: qHTS assay to identify small molecule agonists of the progesterone receptor (PR) signaling pathway (AID 1346784; calls by dose curve; also: nearly all actives have a fitted effect of over 30% in size); conditions: PR-UAS-bla HEK293T, beta-lactamase FRET ratio, 16 h
Method in brief: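 PR-UAS-bla HEK 293T cells (beta-lactamase reporter under UAS) in 2% charcoal-stripped FBS, dosed with 23 nL compound after 6 hr, incubated 16hr at 37C. LiveBLAzer B/G FRET substrate added, fluorescence read after 2 hours.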

[23] = target: Progesterone receptor (Homo sapiens) (UniProt P06401); experiment: qHTS assay to identify small molecule antagonists of the progesterone receptor (PR) signaling pathway (AID 1346795; active = well fitted inhibition curve with a large enough effect in the signal ratio in the repeat runs, not every such curve was filed as active; inconclusive = weak or mixed curves; the % refers to the signal ratio); conditions: PR-UAS-bla HEK293T, beta-lactamase FRET ratio, 16 h; series mostly up to 92.4 µM
Method in brief: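 PR-UAS-bla HEK293T cells with beta-lactamase reporter under UAS control, in 2% charcoal-stripped FBS, treated with compounds plus 1 nM promegestone (R5020, final) for 16 hr at 37C. Read-out: FRET beta-lactamase substrate fluorescence after 2 hr at room temperature.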

[24] = qHTS assay to identify small molecule antagonists of the progesterone receptor (PR) signaling pathway - cell viability counter screen (AID 1346798); conditions: PR-UAS-bla HEK293T viability, CellTiter-Glo luminescence, 16 h; also: nearly all actives have a fitted effect of over 50% in size
Method in brief: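 PR-UAS-bla HEK293T cells, 3,000/well in 2% charcoal-stripped FBS medium, dosed with compounds plus R5020 agonist and incubated 16 h at 37C. Viability then measured in the same wells by CellTiter-Glo luminescence after 30 min at RT.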

[25] = qHTS assay to identify small molecule agonists of the progesterone receptor (PR) signaling pathway - cell viability counter screen (AID 1346799; calls by dose curve; also: nearly all actives have a fitted effect of over 45% in size); conditions: PR-UAS-bla HEK293T viability, CellTiter-Glo luminescence, 16 h
Method in brief: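 Counter screen in the PR-UAS-bla HEK293T wells (2% charcoal-stripped FBS, 16 h compound exposure at 37 C) after the bla read. CellTiter-Glo added, 30 min at room temperature, luminescence read as cell viability.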

[26] = Human pregnane X receptor (PXR) small molecule agonists, qHTS cell viability counter screen (AID 1346977); conditions: PXR-Luc HepG2 viability, CellTiter-Fluor, 24 h; also: nearly all actives have a fitted effect of over 50% in size
Method in brief: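 PXR-Luc HepG2 cells (2,000/well, 5% charcoal-stripped FBS) preincubated 5 hr, then exposed to compounds 24 hr at 37 C. Viability read in the same wells by CellTiter-Fluor fluorescence, reagent added at 23 hr, 1 hr incubation.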

[27] = Caspase-3/7 induction in HepG2 cells by small molecules, qHTS assay (AID 1346978); conditions: HepG2 caspase-3/7 activation, Caspase-Glo luminescence, 17 h; also: nearly all actives have a fitted effect of over 15% in size
Method in brief: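 Wild-type HepG2 cells (2,000/well) were settled 5 h at 37 C, 5% CO2, then exposed to compounds in DMSO for 17 h. Caspase-3/7 activity was read by luminescence 30 min after adding Caspase-Glo 3/7 reagent at room temperature.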

[28] = target: Cytochrome P450 2D6 (Homo sapiens) (UniProt P10635); experiment: Cytochrome P450 Family 2 Subfamily D Member 6 (CYP2D6) small molecule antagonists: luciferase reporter qHTS assay (AID 1671196); conditions: P450-Glo CYP2D6 enzyme assay, luciferin luminescence, 1 h; also: nearly all actives have a fitted effect of over 50% in size
Method in brief: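 Quantitative HTS of Tox21 chemicals against CYP2D6 using a luminescent proluciferin substrate. After NADPH addition, 1 h room-temperature reaction; luminescence recorded 20 min post detection reagent.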

[29] = target: Cytochrome P450 1A2 (Homo sapiens) (UniProt P05177); experiment: Cytochrome P450 Family 1 Subfamily A Member 2 (CYP1A2) small molecule antagonists: luciferase reporter qHTS assay (AID 1671199); conditions: P450-Glo CYP1A2 enzyme, luciferin luminescence, 1 h; also: nearly all actives have a fitted effect of over 50% in size
Description: National Center for Advancing Translational Sciences [NCATS]
U.S. Environmental Protection Agency [EPA]
National Institutes of Environmental Health Sciences [NIEHS]
National Toxicology Program [NTP]
U.S. Food and Drug Administration [FDA]
Cytochrome P450 (CYP) enzymes are membrane-bound hemeproteins that play a key role in metabolism of drugs and xenobiotics. Evaluation of the effect of chemicals on CYP isozymes is useful to minimize the adverse drug reactions and toxicities in drug development process. Tox21 chemicals were tested for their effect on CYP enzyme activities by using P450-Glo (TM) screening systems (Promega Corporation, Madison, WI). These systems provide a luminescent method containing proluciferin substrates and are converted to luciferin products by CYP isozymes. The luciferin products formed are detected with a luciferin detection reagent, and the amount of light produced is proportional to CYP activity. P450-Glo (TM) CYP1A2 screening system (Catalog. No. V9770) was used to detect the compounds that interfere in CYP1A2 activity.
Tox21 Assay Protocol Summary:
Two ul of enzyme-substrate mix was dispensed into medium binding white/solid 1536-well plates (Greiner Bio-One North America Inc., Monroe, NC) using a BioRaptr Flying Reagent Dispenser (FRD, Beckman Coulter, Brea, CA). Compounds dissolved in DMSO and positive control (furafyllline) were transferred to the assay plates at 23 nl using a Pintool station (Wako, San Diego, CA). The assay plates were incubated at room temperature for 10 min. Then 2 ul of NADPH regeneration solution was added to each well of the assay plates using an FRD and incubated at room temperature for 1 h. The reaction was stopped by adding 4 ul of detection reagent using an FRD and after 20 min incubation at room temperature the luminescence signal was measured using a ViewLux plate reader (Perkin Elmer, Shelton, CT). Data were expressed as relative luminescence units.

Measured: Potency
Potency is read from the fitted curve at half-maximal effect.

CN(CCCl)CCCl
inconclusive: [1] 29.8 µM | [2] 18.8 µM | [3] 76.8 µM | [4] 7.74 µM and 21.3 µM | [5] 61.5 µM | [6] 55.2 µM | [7] 33.5 µM | [8] 23.9 µM | [9] 26.8 µM | [10] 54.8 µM | [11] 38.8 µM | [12] 23.9 µM | [13] 21.8 µM and 23.9 µM | [14] 21.8 µM and 26.8 µM | [15] 34.6 µM and 26.8 µM | [16] 43.2 µM and 26.6 µM | [17] 33.5 µM | [18] 29.8 µM | [19] 27.3 µM and 23.7 µM | [20] 54.4 µM | [21] 68.5 µM | [22] 27.3 µM | [23] 61 µM and 33.5 µM | [24] 68.5 µM | [25] 43.2 µM | [26] 33.5 µM | [27] 33.5 µM | [28] 56.3 µM | [29] 89.2 µM
